This series is described as follows: peptide synthesis. To be noted: coupling step.

With Z.Leu-Val-Glu (cHex)-Ala.OBu^t, the step yield turned out to be 88%. On to “Boc.Asp(cHex)-Leu-Val-Glu(cHex)-Ala.OBu^t”, for which the step yield amounted to 85%. Substance “Boc.Ser(Bzl)-Asp(cHex)-Leu-Val-Glu (cHex)-Ala.OH” registered a step yield of 90%.

Turning to “Boc.Ser(Bzl)-Asp(cHex)-Leu-Val-Glu(cHex)-Ala-Leu-Tyr(Bzl)-Leu-Val-Cys(Dpm)- Gly-Glu(Bzl)-Arg(NO2)-Gly-Phe-Phe-Tyr(Bzl)-Thr-Pro-Lys(Z)-Thr(Bzl).OBzl”, the step yield stood at 88%.

For the origin of these results see US4992417A (Mount Sinai School of Medicine, priority 1988, dated 1991).
